Assay results reported in patent US20070202145A1, “Method for incorporation of bioactives into a porous hydrophobic polymer scaffold” (priority 2003, published 2007).
Where “and” joins values, the source holds several entries; their conditions need not be identical. Equal entries are not always repeated.

Test: Total p38 kinase inhibitor content in composite scaffold (methanol extraction, HPLC)
Conditions: foam nonwoven composite scaffold, 8 mm; theoretical value 30 micrograms; 30 μl of 1 mg/ml in tertiary butanol, freeze-dried

SMILES: OCCC#Cc1nc(-c2ccc(F)cc2)c(-c2ccncc2)n1CCCc1ccccc1 [p38 kinase inhibitor, 4-[4-(4-fluorophenyl)-1-(3-phenylpropyl)-5-(4-pyridinyl)-1H-imidazol-2-yl]-3-butyn-1-ol]
- total content of p38 kinase inhibitor on each scaffold: 29 micrograms and 29.5 micrograms
